Source: paper PMC3366976, “Tuning the Drug Efflux Activity of an ABC Transporter in vivo by in vitro Selected DARPin Binders” (PLoS ONE, 2012)
These are yes or no findings as the source states them, for the method shown. Tags and fused reporters may be left off the sequences shown.

Molecular target: biotinylated nucleotide binding domain of LmrD with N-terminal Avi-tag (bLmrD-NBD_(AviN)) (Lactococcus lactis) (UniProt A2RI38)
Assay: SEC; purified NBD of LmrD from E. coli on SEC (Figure S1F); both purified

binding: no binding
B1: biotinylated nucleotide binding domain of LmrD with N-terminal Avi-tag (bLmrD-NBD_(AviN)) (domain or fragment, UniProt A2RI38 424-664)
chain: GIQIENLDFEYLPGKPVLKKVNIDVKKGQMVALVGPTGSGKTTVMNLMNRFYDVNGGAIKFDGTDIREFDLDSLRSNVGIVLQESVLFDGTIADNIKFGKPNATQEEIETVAKTTHIHEFIESLPDKYETHVSDDESVFSVGQKQQISIARTILTNPELLILDEATSNVDTVTEEQIQWAMEAAIAGRTSFVIAHRLKTILNADKIVVLKDGEVIEEGNHHELVAQGGFYSELYHNQFVFE
modifications: biotin on the Avi-tag (enzymatic)
